# Earlier results, collected in patent US6468987B1, “Nutritional product for a person having ulcerative colitis” (Abbott Laboratories, priority 1994, dated 2002).
# For at least one compound, name, drawing or mass did not settle the structure.
# Test system: distal ulcerative colitis
# Settings: ten patients, butyrate enemas alone; cited from earlier work
compound,measurement,value
CCCC(=O)O [butyrate],disease activity index and histological parameters,markedly improved
